From patent US20060122104A1, “Methods for in vitro expansion and transdifferentiation of human pancreatic acinar cells into insulin-producing cells” (priority 2002, published 2006) come the findings set out here.

This data set has as its system primary human pancreatic acinar cells, IP cells, putative insulin producing cells. Briefly: 12K microarray mRNA expression at Day 3, Day 8 and Day 16 (Tables 6 and 7). Format: cell-based. The conditions noted are these: for day3 (microarray mRNA expression signal): primary human pancreatic acinar cells; for day8 (microarray mRNA expression signal): IP cells; for day16 (microarray mRNA expression signal): putative insulin producing cells.

Setting [1] is: mRNA expression signal, 12K microarray, Day 3.
[2] abbreviates: mRNA expression signal, 12K microarray, Day 8.
Setting [3] is: mRNA expression signal, 12K microarray, Day 16.
[4] abbreviates: mean of day3, day8, day16 signals.
Where [5] appears, read: ratio day8 (intermediate) to day3 (acinar).
Where [6] appears, read: ratio day16 (islet-like) to day3 (acinar).
Setting [7] is: mean of day3, day8 and day16 signals.
Setting [8] is: 12K microarray mRNA expression signal of the gene, Day 3.
Where [9] appears, read: 12K microarray mRNA expression signal of the gene, Day 8.
The mark [10] stands for this setting: 12K microarray mRNA expression signal of the gene, Day 16.
Setting [11] is: expression class of the gene (one of 17 classes, clustering).
The mark [12] stands for this setting: ratio day8 to day3 (values fit log2).
Setting [13] is: ratio day16 to day3 (values fit log2).

As to Interleukin 10, where the note is “Day 3”, the “day3 (microarray mRNA expression signal)” value came to 174.8595. For the same substance, where the note is “Day 8”, the “day8 (microarray mRNA expression signal)” value is recorded as 108. In addition, the “day16 (microarray mRNA expression signal)” value (Day 16) was 113.5877. This substance also gave a rationIntto/ (day8 versus day3) of −7.00E−01. Besides, under “day16 versus day3”, the ratioItoA is reported as −6.22E−01. Also, where the note is “mean of day3, day8, day16”, the allMean is reported as 132.021.
Under setting [1], interleukin 8 yielded a day3 of 6902.736. Under setting [2], this substance gave a day8 of 13300. For the same substance, under setting [3], the day16 turned out to be 1783.339. Under setting [4], this substance displayed an allMean of 7330.866. In addition, under setting [5], the rationIntto/ turned out to be 9.47E−01. The ratioItoA under setting [6] was −1.95E+00.
As for phosphatidylinositol-4-phosphate, the rationIntto/ (day8 versus day3) is −5.16E−01. Moreover, the ratioItoA (day16 versus day3) is listed as −1.04E−00.
For interleukin 11, the rationIntto/ (day8 versus day3, values fit log2 of the ratio) is recorded as −1.51E+00. Also, under “day16 versus day3, values fit log2 of the ratio”, the ratioItoA came out at 1.99E−01. Also, the classsName result (expression-pattern class (one of 17 classes; classID 1)) is “Unchanged Low”. Besides, the day3 (mRNA expression signal per gene, 12K microarray, Day 3 of culture) amounted to 399.048. Further, the day8 (mRNA expression signal per gene, 12K microarray, Day 8 of culture) stood at 140. The substance further showed a day16 (mRNA expression signal per gene, 12K microarray, Day 16 of culture) of 458.1544. The substance also came in with an allMean under setting [7] of 332.3748.
The substance junction plakoglobin showed a day3 under setting [1] of 1969.949. The day8 under setting [2] was 2610. Moreover, under setting [3], the day16 is listed as 912.3081. Under setting [4], this substance gave an allMean of 1831.613. The rationIntto/ under setting [5] came out at 4.07E−01. The ratioItoA under setting [6] was −1.11E+00.
glutamine-fructose-6-phosphate: the day3 (12K microarray mRNA expression signal of the gene at Day 3) came to 869.494. The substance further gave a day8 (12K microarray mRNA expression signal of the gene at Day 8) of 600. This substance registered a day16 (12K microarray mRNA expression signal of the gene at Day 16) of 863.157. Moreover, the classsName entry (expression class of the gene (classID 2 of 17 classes)) is recorded as “Unchanged Medium”. This substance showed an allMean under setting [7] of 777.6585. Further, under “ratio day8 versus day3 (values fit log2)”, the rationIntto/ is on record as −5.34E−01. The ratioItoA (ratio day16 versus day3 (values fit log2)) is on record as −1.06E−02.
Consider transforming growth factor; alpha, for which the day3 under setting [8] was determined as 215.9023. In addition, under setting [9], the day8 is reported as 160. Further, the day16 under setting [10] came to 59.63. The classsName result under setting [11] is on record as “On A/Int; Off I”. Besides, under setting [7], the allMean was found to be 145.3108. In addition, the rationIntto/ under setting [12] is −4.29E−01. The ratioItoA under setting [13] was −1.86E+00.
On to transforming growth factor; beta, for which the “day3 (microarray mRNA expression signal)” value (Day 3) was found to be 115.7567. Moreover, the “day8 (microarray mRNA expression signal)” value (Day 8) was found to be 108. Also, the “day16 (microarray mRNA expression signal)” value (Day 16) stood at 120.6724. This substance had a rationIntto/ (day8 versus day3) of −9.83E−02. In addition, the ratioItoA (day16 versus day3) was 6.00E−02. Also, the allMean (mean of day3, day8, day16) was 114.8546.
annexin A1 showed a day3 under setting [8] of 1114.486. Under setting [9], this substance displayed a day8 of 8240. Under setting [10], this substance registered a day16 of 8292.245. Further, the classsName result under setting [11] was “On Acinar; Up Int = I”. The same substance yielded an allMean under setting [7] of 5883.787. Moreover, the rationIntto/ under setting [12] is given as 2.89E+00. Further, the ratioItoA under setting [13] is 2.90E+00.
As to 5-hydroxytryptamine (serotonin), the day3 (mRNA expression signal, 12K microarray, Day 3 (primary human pancreatic acinar cells)) was 218.7666. Also, the day8 (mRNA expression signal, 12K microarray, Day 8 (IP cells)) came to 181. Where the note is “mRNA expression signal, 12K microarray, Day 16 (putative insulin producing cells)”, this substance registered a day16 of 107.8181. The substance further registered an allMean under setting [7] of 169.3507. The classsName result (name of the class of genes by clustering) was “Unchanged Low”. The rationIntto/ under setting [12] was −2.70E−01. Besides, the ratioItoA under setting [13] is reported as −1.02E+00.
thrombospondin 1 showed a day3 under setting [1] of 79. The substance further returned a day8 under setting [2] of 139. Further, the day16 under setting [3] is 163.2593. The substance further showed an allMean under setting [4] of 127.0819. For the same substance, under setting [5], the rationIntto/ was 8.15E−01. In addition, the ratioItoA under setting [6] is reported as 1.05E+00.
